PubChem BioAssay AID686938 – Drosophila RNAi Screening Center – 2013
Screen: 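Looking for CRAC channel components and the factors controlling them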 (primary screen). Cells: Drosophila S2R+ cells. Knock-down reagent: long dsRNA against Drosophila genes, about 0.25 µg dsRNA per well, roughly 10,000 cells. Timing: 5 days of knock-down before the calcium assay. Treatment: thapsigargin (SERCA pump blocker) to empty calcium stores; entry signal taken 4 min after adding it. Detection: 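Per-well fluo-4 fluorescence in two replicates, unnormalised, measured in resting cells and 4 min after store depletion by the SERCA blocker thapsigargin; ratio of the two present in few wells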. Direction: calcium entry signal: higher = stronger calcium signal after store depletion; resting calcium signal: higher = higher resting calcium signal. Rule for the call: 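Called when the plate z-score of the entry-to-rest ratio, mean of duplicates, falls below −3; wells with low overall dye signal (Fmax z below −2) or more than five off-targets excluded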. Calls: active = strongly reduced calcium entry; inactive = no strong reduction.
The deposit covers about 23,000 reagents; below is a random part of those that have a named target and a result. Of all reagents, 75 (0.33%) are marked active. 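Raw plate signals without normalisation; calls rest on plate z-scores that were not deposited; ratio present for only 364 wells.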 The record does not give: the dose of the treatment.

With knock-down of PKD (GeneID 42203) [DRSC16200], the record shows calcium entry signal, replicate 1 (fluorescence units) = 3.86e7; calcium entry signal, replicate 2 (fluorescence units) = 5.50e7; resting calcium signal, replicate 1 (fluorescence units) = 5.66e7; resting calcium signal, replicate 2 (fluorescence units) = 2.47e7; inactive. Scamp (GeneID 32470) [DRSC20286] showed calcium entry signal, replicate 1 (fluorescence units) = 3.12e7; calcium entry signal, replicate 2 (fluorescence units) = 2.45e7; resting calcium signal, replicate 1 (fluorescence units) = 1.63e7; resting calcium signal, replicate 2 (fluorescence units) = 1.24e7; inactive. Silencing of tHMG2 (GeneID 42651) [DRSC16182] came out at: calcium entry signal, replicate 1 (fluorescence units) = 3.09e7; calcium entry signal, replicate 2 (fluorescence units) = 4.07e7; resting calcium signal, replicate 1 (fluorescence units) = 4.63e7; resting calcium signal, replicate 2 (fluorescence units) = 1.90e7; inactive. With knock-down of GC2 (GeneID 41449) [DRSC14476], the screen gave calcium entry signal, replicate 1 (fluorescence units) = 4.45e7; calcium entry signal, replicate 2 (fluorescence units) = 2.82e7; resting calcium signal, replicate 1 (fluorescence units) = 2.06e7; resting calcium signal, replicate 2 (fluorescence units) = 1.48e7; inactive. After knock-down of Tm1 (GeneID 41852) [DRSC13082], the screen gave calcium entry signal, replicate 1 (fluorescence units) = 4.47e7; calcium entry signal, replicate 2 (fluorescence units) = 4.35e7; resting calcium signal, replicate 1 (fluorescence units) = 2.38e7; resting calcium signal, replicate 2 (fluorescence units) = 1.93e7; inactive. For Tm1 (GeneID 41852) [DRSC13083] the deposit lists calcium entry signal, replicate 1 (fluorescence units) = 4.09e7; calcium entry signal, replicate 2 (fluorescence units) = 4.83e7; resting calcium signal, replicate 1 (fluorescence units) = 2.22e7; resting calcium signal, replicate 2 (fluorescence units) = 2.56e7; inactive.

Tm1 (GeneID 41852) [DRSC16886] gave calcium entry signal, replicate 1 (fluorescence units) = 3.71e7; calcium entry signal, replicate 2 (fluorescence units) = 4.81e7; resting calcium signal, replicate 1 (fluorescence units) = 1.64e7; resting calcium signal, replicate 2 (fluorescence units) = 2.12e7; inactive. CG10947 (GeneID 35309) [DRSC02111] showed calcium entry signal, replicate 1 (fluorescence units) = 3.90e7; resting calcium signal, replicate 1 (fluorescence units) = 2.22e7; inactive. Depletion of CG4951 (GeneID 43355) [DRSC15682] resulted in: calcium entry signal, replicate 1 (fluorescence units) = 2.76e7; calcium entry signal, replicate 2 (fluorescence units) = 4.11e7; resting calcium signal, replicate 1 (fluorescence units) = 1.35e7; resting calcium signal, replicate 2 (fluorescence units) = 1.78e7; inactive. For CG7848 (GeneID 36839) [DRSC07050], the entry reads calcium entry signal, replicate 1 (fluorescence units) = 5.22e7; calcium entry signal, replicate 2 (fluorescence units) = 7.18e7; resting calcium signal, replicate 1 (fluorescence units) = 2.24e7; resting calcium signal, replicate 2 (fluorescence units) = 3.30e7; inactive. Depletion of CG3635 (GeneID 35447) [DRSC03729] came out at: calcium entry signal, replicate 1 (fluorescence units) = 3.73e7; calcium entry signal, replicate 2 (fluorescence units) = 5.57e7; resting calcium signal, replicate 1 (fluorescence units) = 1.87e7; resting calcium signal, replicate 2 (fluorescence units) = 2.38e7; inactive. Knock-down of TpnC73F (GeneID 39916) [DRSC11307] resulted in: calcium entry signal, replicate 1 (fluorescence units) = 2.61e7; calcium entry signal, replicate 2 (fluorescence units) = 4.43e7; resting calcium signal, replicate 1 (fluorescence units) = 1.47e7; resting calcium signal, replicate 2 (fluorescence units) = 1.80e7; inactive.

Knock-down of Dic61B (GeneID 38020) [DRSC08588] came out at: calcium entry signal, replicate 1 (fluorescence units) = 3.54e7; calcium entry signal, replicate 2 (fluorescence units) = 4.06e7; resting calcium signal, replicate 1 (fluorescence units) = 1.75e7; resting calcium signal, replicate 2 (fluorescence units) = 1.97e7; inactive. After knock-down of CG8924 (GeneID 32557) [DRSC20122] the results were calcium entry signal, replicate 1 (fluorescence units) = 4.43e7; calcium entry signal, replicate 2 (fluorescence units) = 5.01e7; resting calcium signal, replicate 1 (fluorescence units) = 2.10e7; resting calcium signal, replicate 2 (fluorescence units) = 2.37e7; inactive. With knock-down of CG8924 (GeneID 32557) [DRSC23027], the screen gave calcium entry signal, replicate 1 (fluorescence units) = 3.54e7; calcium entry signal, replicate 2 (fluorescence units) = 3.58e7; resting calcium signal, replicate 1 (fluorescence units) = 1.63e7; resting calcium signal, replicate 2 (fluorescence units) = 1.53e7; inactive.

2 entries from above, reduced to “resting calcium signal, replicate 1 (fluorescence units)”:
CG8924 (GeneID 32557) [DRSC20122] = 2.10e7
CG8924 (GeneID 32557) [DRSC23027] = 1.63e7
